Results as given in PubChem BioAssay AID212 (DTP/NCI, 2004).
The list shows only some results of the screen, not a fair sample: it is rich in T/C values a quarter to a half above the control, in often repeated tests (any T/C) and in doses without a T/C. Further doses and runs are listed elsewhere. T/C gives the treated animals as a percentage of the vehicle group. Schedules are NCI's codes, read here as Q, the interval in days (D) or hours (H), X, the number of doses. Some T/C values are followed by the survivors on the day toxicity was checked, most often the fifth; where none is given, no animal had died by that day. Some entries hold several experiments; the values are given in rising order. Brackets with × give the number of equal values in this list. Some entries give survivors of the animals treated and no T/C: the source holds a T/C of zero for them, seemingly a mark for toxic or unscored doses. Counts of survivors are from the toxicity check (mostly the fifth day) where no day follows; animals may have died later.

Tested on: BDF1 mice, colon carcinoma 38 sc, T/C %
Test: NCI In Vivo Anticancer Drug Screen. Data for tumor model Colon Carcinoma 38 (subcutaneous) in B6D2F1 (BDF1) mice
Details: T/C endpoint: median tumor weight (est.), higher T/C = larger tumour; for T/C: evaluated on day 20
Summary of the method: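 Ratio of survival or tumor size, compound-treated animals relative to vehicle controls, in tumor-bearing mice.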

[1] = dose: 800.0 mg/kg/injection, schedule: Q07DX002 (ip), vehicle: saline
[2] = dose: 40.0 mg/kg/injection, schedule: Q07DX002 (ip), vehicle: sodium bicarbonate
[3] = dose: 60.0 mg/kg/injection, schedule: Q07DX002 (ip), vehicle: sodium bicarbonate
[4] = dose: 90.0 mg/kg/injection, schedule: Q07DX002 (ip), vehicle: sodium bicarbonate
[5] = dose: 135.0 mg/kg/injection, schedule: Q07DX002 (ip), vehicle: sodium bicarbonate
[6] = dose: 25.0 mg/kg/injection, schedule: Q07DX002 (ip), vehicle: Klucel (hydroxypropylcellulose) (HPC)
[7] = dose: 100.0 mg/kg/injection, schedule: Q07DX002 (ip), vehicle: saline with Tween-80
[8] = dose: 200.0 mg/kg/injection, schedule: Q07DX002 (ip), vehicle: saline with Tween-80
[9] = dose: 50.0 mg/kg/injection, schedule: Q07DX002 (ip), vehicle: saline with Tween-80
[10] = dose: 800.0 mg/kg/injection, schedule: Q07DX002 (ip), vehicle: saline with Tween-80

With CC[C@](O)(C(=O)O)c1cc2n(c(=O)c1CO)Cc1cc3ccccc3nc1-2 the survivor count (dose: 200.0 mg/kg/injection, schedule: Q07DX003 (ip), vehicle: saline) was 1 of 10 and 1 of 10 on day 20.

CCCC(=O)O was tested, and the T/C (dose: 100.0 mg/kg/injection, schedule: Q07DX002 (ip), vehicle: saline) was 138 % of control, the survivor count (dose: 400.0 mg/kg/injection, schedule: Q07DX002 (ip), vehicle: saline) was 5 of 10 on day 20 and the survivor count [1] was 1 of 10 on day 20.

For C/C=C/C=C/c1cc2cc3c(c(O)c2c(=O)[nH]1)C1(CC3)C(O)=c2c(=O)c3c(=O)cc(OC)c(=O)c=3c(=O)c2=C1O (centres undefined), the T/C (dose: 0.25 mg/kg/injection, schedule: Q07DX002 (ip), vehicle: DMSO) was 125 % of control, the survivor count (dose: 2.0 mg/kg/injection, schedule: Q07DX002 (ip), vehicle: DMSO) was 0 of 10 on day 20 and the survivor count (dose: 2.25 mg/kg/injection, schedule: Q07DX002 (ip), vehicle: DMSO) was 1 of 10 on day 20 and 2 of 10 on day 20. The survivor count (dose: 4.5 mg/kg/injection, schedule: Q07DX002 (ip), vehicle: DMSO) was 0 of 10 on day 20, the survivor count (dose: 9.0 mg/kg/injection, schedule: Q07DX002 (ip), vehicle: DMSO) was 0 of 10 on day 20 and the survivor count (dose: 18.0 mg/kg/injection, schedule: Q07DX002 (ip), vehicle: DMSO) was 0 of 10 on day 20. The survivor count (dose: 36.0 mg/kg/injection, schedule: Q07DX002 (ip), vehicle: DMSO) was 0 of 10 on day 20.

In the case of CN(Cc1cnc2nc(N)nc(N)c2n1)c1ccc(C(=O)N[C@@H](CCC(=O)O)C(=O)O)cc1, the T/C (dose: 5.0 mg/kg/injection, schedule: Q07DX002 (ip), vehicle: sodium bicarbonate) is reported as 141 % of control, the survivor count (dose: 20.0 mg/kg/injection, schedule: Q07DX002 (ip), vehicle: sodium bicarbonate) is reported as 4 of 10 on day 20 and the T/C (dose: 26.0 mg/kg/injection, schedule: Q07DX002 (ip), vehicle: sodium bicarbonate) is reported as 49, 69 [9 of 10 alive on day 20], 86 [9 of 10 alive on day 20], 92, 93, 99, 114 [9 of 10 alive on day 20], 123, 124 [9 of 10 alive on day 20], 278 % of control. For the same compound, the T/C [2] was 50 [7 of 10 alive on day 20], 71 [9 of 10 alive on day 20], 74, 76 (2×), 89 [9 of 10 alive on day 20], 91 [9 of 10 alive on day 20], 101, 112, 114 % of control, the survivor count [2] was 2 of 10 on day 20 and the T/C [3] was 49 [9 of 10 alive on day 20], 65 [7 of 10 alive on day 20], 76 [8 of 10 alive on day 20], 85 [7 of 10 alive on day 20], 92, 96 [9 of 10 alive on day 20], 119, 119 [7 of 10 alive on day 20], 120 % of control [9 of 10 alive on day 20]. For the same compound, the survivor count [3] was 2 of 10 on day 20 and 5 of 10 on day 20, the T/C [4] was 69 [8 of 10 alive on day 20], 75 [9 of 10 alive on day 20], 96, 129 % of control and the survivor count [4] was 0 of 10 on day 20, 1 of 10 on day 20, 1 of 9 on day 20, 2 of 10 on day 20, 3 of 10 on day 20, 5 of 10 on day 20. For the same compound, the T/C [5] was 34 [9 of 10 alive on day 20], 85 [9 of 10 alive on day 20], 156 % of control and the survivor count [5] was 0 of 10 on day 20, 0 of 8 on day 20, 2 of 10 on day 20, 3 of 10 on day 20.

With N=C(N)SCc1cccc2c(=O)cc(-c3ccccc3)oc12 the survivor count [1] was 6 of 10 on day 20.

With O=C(O)C1(NO)CCCCC1 the T/C [6] was 125 % of control.

With Cn1cnc([N+](=O)[O-])c1SCC(=O)O the T/C (dose: 56.2 mg/kg/injection, schedule: Q07DX002 (ip), vehicle: saline) was 137 % of control.

For Cc1cc2nc3[nH]c4ccccc4c3nc2cc1C, the T/C [6] was 144 % of control.

O=C1OCC2(C(=O)O)C(=O)OCC12 (centres undefined) was tested, and the T/C [7] was 125 % of control and the T/C [8] was 139 % of control.

For Cc1ncc([N+](=O)[O-])n1CCSC(N)=O, the T/C (dose: 50.0 mg/kg/injection, schedule: Q07DX003 (ip), vehicle: saline with Tween-80) was 131 % of control, the T/C (dose: 200.0 mg/kg/injection, schedule: Q07DX003 (ip), vehicle: saline with Tween-80) was 128 % of control and the T/C (dose: 400.0 mg/kg/injection, schedule: Q07DX003 (ip), vehicle: saline with Tween-80) was 133 % of control [9 of 10 alive].

For Nc1nc(N)c2c(Cl)c(CNc3ccc(Cl)c(Cl)c3)ccc2n1, the T/C (dose: 3.12 mg/kg/injection, schedule: Q07DX002 (ip), vehicle: saline with Tween-80) was 126 % of control, the survivor count [7] was 6 of 10 on day 20 and the survivor count [8] was 3 of 10 on day 20.

With Nc1n[n+](-c2ccccc2)no1 the survivor count (dose: 100.0 mg/kg/injection, schedule: Q07DX002 (ip), vehicle: water) was 0 of 10 on day 20.

With N=C1C=C[C@]2(O)C[C@H](Cl)CN12 the survivor count (dose: 25.0 mg/kg/injection, schedule: Q07DX002 (ip), vehicle: saline) was 0 of 10 on day 20.

In the case of C=C(NC(=O)C(=C)NC(=O)c1csc(C2=NC3c4csc(n4)C4NC(=O)c5csc(n5)C(C(C)(O)C(C)O)NC(=O)C5CSC(=N5)/C(=C/C)NC(=O)C(C(C)O)NC(=O)c5csc(n5)C3(CC2)NC(=O)C(C)NC(=O)C(=C)NC(=O)C(C)NC(=O)C(C(C)CC)NC2C=Cc3c(C(C)O)cc(nc3C2O)C(=O)OC4C)n1)C(N)=O (centres undefined), the T/C (dose: 12.5 mg/kg/injection, schedule: Q07DX003 (ip), vehicle: Klucel (hydroxypropylcellulose) (HPC)) is reported as 129 and 143 % of control and the T/C [6] is reported as 149 % of control.

In the case of CCCCCC1c2cc(O)ccc2OC1N1CCOCC1 (centres undefined), the T/C [9] is reported as 144 % of control [9 of 10 alive on day 20] and the survivor count (dose: 1800.0 mg/kg/injection, schedule: Q07DX002 (ip), vehicle: saline with Tween-80) is reported as 0 of 10 on day 20.

O=C1NC(O)CCN1C1OC(CO)C(O)C1O (centres undefined) was tested, and the T/C (dose: 50.0 mg/kg/injection, schedule: Q07DX002 (ip), vehicle: saline) was 149 % of control, the T/C (dose: 50.0 mg/kg/injection, schedule: Q07DX003 (ip), vehicle: saline) was 126 % of control [9 of 10 alive] and the T/C (dose: 800.0 mg/kg/injection, schedule: Q07DX003 (ip), vehicle: saline) was 140 % of control.

For O=C(O)CCCc1ccc(N(CCCl)CCCl)cc1, the survivor count (dose: 60.0 mg/kg/injection, schedule: Q07DX002 (ip), vehicle: Klucel (hydroxypropylcellulose) (HPC)) was 0 of 10 on day 20 and 5 of 10 on day 20 and the survivor count (dose: 120.0 mg/kg/injection, schedule: Q07DX002 (ip), vehicle: Klucel (hydroxypropylcellulose) (HPC)) was 0 of 10 on day 20.

In the case of CCc1ccc(C2=C(O)C(=O)C(c3ccc(CC)cc3)=C(O)C2=O)cc1, the T/C (dose: 6.25 mg/kg/injection, schedule: Q07DX002 (ip), vehicle: saline with Tween-80) is reported as 126 % of control and the survivor count [7] is reported as 6 of 10 on day 20.

For Cc1c2ccc3ccccc3c2c[n+]2ccccc12, the T/C (dose: 10.0 mg/kg/injection, schedule: Q07DX002 (ip), vehicle: Klucel (hydroxypropylcellulose) (HPC)) was 147 % of control, the survivor count (dose: 40.0 mg/kg/injection, schedule: Q07DX002 (ip), vehicle: Klucel (hydroxypropylcellulose) (HPC)) was 6 of 10 on day 20 and the survivor count (dose: 80.0 mg/kg/injection, schedule: Q07DX002 (ip), vehicle: Klucel (hydroxypropylcellulose) (HPC)) was 0 of 10 on day 20 and 1 of 10 on day 20.

With COc1cccc(C2NC(=O)c3c(n[nH]c3N)S2)c1O (centres undefined) the survivor count [10] was 0 of 10 on day 20.

For CCC(=O)Sc1ccccc1C(=O)Nc1ccc(Cl)cc1, the survivor count [10] was 5 of 10 on day 20.

In the case of O=C1OCC2C(=O)OCC12 (centres undefined), the T/C (dose: 12.5 mg/kg/injection, schedule: Q07DX002 (ip), vehicle: saline with Tween-80) is reported as 133 % of control and the T/C [9] is reported as 140 % of control.
